The list shows a part of the results. These are raw signals, not scaled to a control.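 First-pass screen: polymyxin B was added at a level that permeabilizes the Salmonella outer membrane while sparing the inner membrane. DMSO wells, with and without polymyxin B, defined maximum growth. Because plates differed from one another, each plate's data were ranked separately and the compounds with the lowest OD600 were carried forward as hits.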
Test system: Salmonella enterica serovar Typhimurium SL1344
Test: bacterial growth OD600 after 18 h with compound and polymyxin B; higher = more bacterial growth (less inhibition)
Details: 50 µM, Mueller-Hinton broth

SMILES | bacterial growth OD600 (polymyxin B 1 µg/mL) | bacterial growth OD600 (polymyxin B 0.75 µg/mL)
COc1ccc(F)cc1C(=O)C1CCCN(Cc2ccc(F)c(F)c2)C1 (centres undefined) | 0.64 | –
CC(Cc1cncs1)NC1CCN(c2cccc(NC(=O)CCCc3ccccc3)c2)CC1 (centres undefined) | – | 0.825
Cc1ccccc1Cn1cc(C(=O)N(Cc2ccccc2)CC2CCC2)nn1 | 0.485 | –
CN(Cc1ccc(F)cc1)c1ccc(OCC(=O)N2CCCN(Cc3cccc(F)c3)CC2)nn1 | – | 0.85
CCCn1ncc(CN2CCCC(C(=O)c3ccc(Cl)cc3C)C2)c1C (centres undefined) | 0.803 | –
Cc1cc2nc(N3CCC(NC(C)Cc4cccs4)CC3)nc(C)c2cc1C (centres undefined) | – | 0.866
COC(C(=O)Nc1ccnn1C1CCN(C(=O)C2C(C)(C)C2(C)C)CC1)c1ccccc1 (centres undefined) | 0.833 | –
COc1cccc(C(=O)C2CCCN(Cc3c(F)ccc(F)c3F)C2)c1 (centres undefined) | 0.672 | –
O=C1O[C@@H]2CN(Cc3ncc[nH]3)C[C@@H]2N1CCc1ccccn1 | 0.961 | –
